Test results reported in PMC7616709 (Molecular cell, 2024).
These are yes or no findings as the source states them, for the method shown. Some binding calls cover weakened binding; strength is not graded here.

The chains behind the UniProt entries cited, without tags or fusion partners.
UniProt Q9NWU2: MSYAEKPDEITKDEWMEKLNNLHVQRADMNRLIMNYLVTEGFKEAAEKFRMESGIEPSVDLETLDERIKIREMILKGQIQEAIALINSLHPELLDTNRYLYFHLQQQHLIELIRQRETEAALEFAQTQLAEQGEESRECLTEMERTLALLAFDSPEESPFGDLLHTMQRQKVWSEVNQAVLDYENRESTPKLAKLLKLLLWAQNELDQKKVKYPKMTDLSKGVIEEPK
UniProt Q8IUR7: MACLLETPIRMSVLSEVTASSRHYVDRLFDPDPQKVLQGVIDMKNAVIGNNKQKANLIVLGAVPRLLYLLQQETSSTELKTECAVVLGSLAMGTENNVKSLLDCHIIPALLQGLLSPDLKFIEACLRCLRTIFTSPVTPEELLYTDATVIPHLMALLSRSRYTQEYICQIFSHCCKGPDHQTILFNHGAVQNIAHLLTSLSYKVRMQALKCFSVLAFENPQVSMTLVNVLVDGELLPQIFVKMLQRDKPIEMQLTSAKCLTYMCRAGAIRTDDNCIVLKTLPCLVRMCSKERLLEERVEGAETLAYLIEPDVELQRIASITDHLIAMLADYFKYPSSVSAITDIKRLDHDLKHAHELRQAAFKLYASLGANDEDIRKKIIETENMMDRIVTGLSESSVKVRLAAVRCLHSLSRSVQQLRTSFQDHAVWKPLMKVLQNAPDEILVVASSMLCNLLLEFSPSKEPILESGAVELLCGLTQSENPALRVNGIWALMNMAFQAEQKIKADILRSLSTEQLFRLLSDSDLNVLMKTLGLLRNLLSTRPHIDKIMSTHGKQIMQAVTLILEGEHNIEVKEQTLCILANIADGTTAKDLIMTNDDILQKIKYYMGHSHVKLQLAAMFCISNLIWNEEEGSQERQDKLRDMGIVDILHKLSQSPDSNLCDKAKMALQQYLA
UniProt Q9H871: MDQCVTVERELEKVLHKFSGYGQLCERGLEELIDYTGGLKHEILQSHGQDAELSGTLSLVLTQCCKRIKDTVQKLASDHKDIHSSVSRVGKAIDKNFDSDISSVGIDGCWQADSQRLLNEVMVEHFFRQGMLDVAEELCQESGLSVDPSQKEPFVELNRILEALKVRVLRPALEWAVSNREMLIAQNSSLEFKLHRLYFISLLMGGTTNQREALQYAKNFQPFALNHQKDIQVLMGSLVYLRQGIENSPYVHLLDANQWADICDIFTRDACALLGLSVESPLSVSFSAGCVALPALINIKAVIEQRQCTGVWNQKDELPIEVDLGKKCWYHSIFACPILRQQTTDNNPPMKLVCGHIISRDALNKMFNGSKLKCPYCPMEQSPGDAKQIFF

B1: WDR26 (subunit of the recombinant WDR26-CTLH E3) (natural protein, human, UniProt Q9H7D7 1-661, looked up)
chain: MQANGAGGGGGGGGGGGGGGGGGGGQGQTPELACLSAQNGESSPSSSSSAGDLAHANGLLPSAPSAASNNSNSLNVNNGVPGGAAAASSATVAAASATTAASSSLATPELGSSLKKKKRLSQSDEDVIRLIGQHLNGLGLNQTVDLLMQESGCRLEHPSATKFRNHVMEGDWDKAENDLNELKPLVHSPHAIVVRGALEISQTLLGIIVRMKFLLLQQKYLEYLEDGKVLEALQVLRCELTPLKYNTERIHVLSGYLMCSHAEDLRAKAEWEGKGTASRSKLLDKLQTYLPPSVMLPPRRLQTLLRQAVELQRDRCLYHNTKLDNNLDSVSLLIDHVCSRRQFPCYTQQILTEHCNEVWFCKFSNDGTKLATGSKDTTVIIWQVDPDTHLLKLLKTLEGHAYGVSYIAWSPDDNYLVACGPDDCSELWLWNVQTGELRTKMSQSHEDSLTSVAWNPDGKRFVTGGQRGQFYQCDLDGNLLDSWEGVRVQCLWCLSDGKTVLASDTHQRIRGYNFEDLTDRNIVQEDHPIMSFTISKNGRLALLNVATQGVHLWDLQDRVLVRKYQGVTQGFYTIHSCFGGHNEDFIASGSEDHKVYIWHKRSELPIAELTGHTRTVNCVSWNPQIPSMMASASDDGTVRIWGPAPFIDHQNIEEECSSMDS
notes: WDR26, human, from human cDNA library (pFLN WDR26); The models 8QE8 and 8QBN exclude the CTLH-CRA^N domain of WDR26; also called WDR26 dimer

Each molecule was assayed against TWA1^2xS (TWA1 C-terminally tagged with 2xStrep) (human) (UniProt Q9NWU2) (assay: co-purification (Strep-Tactin affinity chromatography, SEC); CTLH subunits co-expressed in High Five insect cells; complexes purified from lysates by the C-terminal 2xStrep tag of TWA1, then SEC on Superose 6; Coomassie-stained SDS-PAGE).
In the case of “ARMC8α (subunit of the recombinant CTLH E3 complexes) (from UniProt Q8IUR7 1-673)”, the binding is reported as “binds”.
“RMND5A (subunit of the recombinant CTLH E3 complexes) (from UniProt Q9H871 1-391)” was tested, and the binding was “binds”.
In the case of B1, the binding is reported as “binds”.
